# Melanoma cell counts after drug treatment

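Human melanoma cell lines in 1,536-well plates were treated with two drugs together for 72 h, then fixed, stained and imaged. Each value is the count of nuclei relative to DMSO-treated wells, in %, so that 100 equals the control. Every drug was used at one fixed concentration, the higher of two screened. These are primary screening values without error estimates.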 Only some of the drugs and lines screened are listed, without regard to their results.

Drug key:
GW2580: COc1ccc(COc2ccc(Cc3cnc(N)nc3N)cc2OC)cc1 at 5 µM
embelin: CCCCCCCCCCCC1=C(O)C(=O)C=C(O)C1=O at 6 µM
SU6656: CN(C)S(=O)(=O)c1ccc2c(c1)/C(=C/c1cc3c([nH]1)CCCC3)C(=O)N2 at 2 µM
GW441756: Cn1cc(/C=C2\C(=O)Nc3cccnc32)c2ccccc21 at 2 µM
tipifarnib: Cn1cncc1[C@@](N)(c1ccc(Cl)cc1)c1ccc2c(c1)c(-c1cccc(Cl)c1)cc(=O)n2C at 0.05 µM
bortezomib: CC(C)C[C@H](NC(=O)[C@H](Cc1ccccc1)NC(=O)c1cnccn1)B(O)O at 0.005 µM
JZL184: O=C(Oc1ccc([N+](=O)[O-])cc1)N1CCC(C(O)(c2ccc3c(c2)OCO3)c2ccc3c(c2)OCO3)CC1 at 5 µM
PD173074: CCN(CC)CCCCNc1ncc2cc(-c3cc(OC)cc(OC)c3)c(NC(=O)NC(C)(C)C)nc2n1 at 0.5 µM
PF-562271: CN(c1ncccc1CNc1nc(Nc2ccc3c(c2)CC(=O)N3)ncc1C(F)(F)F)S(C)(=O)=O at 0.4 µM
YM155: COCC[n+]1c2c(n(Cc3cnccn3)c1C)C(=O)c1ccccc1C2=O at 0.002 µM
bexarotene: C=C(c1ccc(C(=O)O)cc1)c1cc2c(cc1C)C(C)(C)CCC2(C)C at 10 µM
CP-690550: C[C@@H]1CCN(C(=O)CC#N)C[C@@H]1N(C)c1ncnc2[nH]ccc12 at 5 µM
darinaparsin: C[As](C)SC[C@H](NC(=O)CC[C@H](N)C(=O)O)C(=O)NCC(=O)O at 2 µM
everolimus: CO[C@H]1C[C@@H]2CC[C@@H](C)[C@@](O)(O2)C(=O)C(=O)N2CCCC[C@H]2C(=O)O[C@H]([C@H](C)C[C@@H]2CC[C@@H](OCCO)[C@H](OC)C2)CC(=O)[C@H](C)/C=C(\C)[C@@H](O)[C@@H](OC)C(=O)[C@H](C)C[C@H](C)/C=C/C=C/C=C/1C at 0.1 µM
nilutamide: CC1(C)NC(=O)N(c2ccc([N+](=O)[O-])c(C(F)(F)F)c2)C1=O at 5 µM
vismodegib: CS(=O)(=O)c1ccc(C(=O)Nc2ccc(Cl)c(-c3ccccn3)c2)c(Cl)c1 at 5 µM

Pair	WM3619	COLO 792	COLO 800	C32	COLO 829	WM451Lu
vismodegib + SU6656	91.9	79.7	88.9	86.9	73.0	74.9
nilutamide + PF-562271	88.0	62.1	81.0	65.5	74.3	78.5
PF-562271 + YM155	83.3	45.8	21.0	64.8	55.7	25.5
JZL184 + GW2580	101	97.6	90.5	95.1	118	98.5
YM155 + everolimus	52.8	52.7	26.8	93.1	67.1	30.6
SU6656 + PF-562271	93.4	51.8	54.2	73.4	63.0	58.3
SU6656 + embelin	70.1	62.4	69.9	79.7	90.8	57.2
nilutamide + GW441756	87.6	93.6	55.0	105	124	101
bexarotene + nilutamide	82.5	96.1	146	111	79.9	109
YM155 + bortezomib	1.8	26.9	44.6	22.9	8.3	23.8
darinaparsin + bortezomib	6.4	41.2	80.4	29.7	10.2	33.7
embelin + JZL184	96.7	105	103	100	79.7	119
vismodegib + JZL184	94.5	113	110	111	107	106
GW441756 + PF-562271	66.9	81.8	102	74.0	72.1	61.6
tipifarnib + YM155	108	47.6	57.9	99.2	77.6	47.3
bortezomib + PD173074	5.0	73.2	67.3	19.0	15.0	29.3
GW2580 + SU6656	81.1	78.6	76.7	94.5	68.5	78.9
JZL184 + PF-562271	92.3	100	121	56.3	76.3	100
PD173074 + YM155	93.1	67.4	72.2	99.7	107	40.5
nilutamide + JZL184	97.2	101	97.1	97.9	129	104
GW441756 + YM155	71.4	69.1	54.4	101	94.6	48.5
vismodegib + everolimus	61.8	56.1	63.6	85.8	74.0	69.0
everolimus + bexarotene	81.1	52.7	88.3	72.8	70.6	64.6
bortezomib + SU6656	8.2	37.6	33.0	24.7	24.2	27.6
darinaparsin + GW2580	114	103	106	87.7	107	94.5
everolimus + JZL184	87.4	57.7	71.9	100	78.9	95.5
tipifarnib + JZL184	68.1	97.9	84.2	106	100	78.5
bexarotene + JZL184	81.5	89.4	107	120	90.4	95.1
PF-562271 + darinaparsin	76.4	82.8	81.5	88.5	61.5	69.9
everolimus + GW441756	56.8	41.5	45.7	95.7	75.2	62.6
everolimus + CP-690550	90.5	29.6	66.1	85.0	80.6	79.6
CP-690550 + JZL184	105	95.5	88.1	105	110	99.6
SU6656 + PD173074	71.7	67.6	53.5	81.0	82.7	58.4
bortezomib + tipifarnib	4.9	29.1	64.2	27.0	18.4	36.0
SU6656 + GW441756	73.9	79.1	63.1	114	70.9	85.3
darinaparsin + bexarotene	102	84.5	168	113	72.0	76.8
embelin + everolimus	84.4	48.4	58.2	82.9	70.9	86.9
CP-690550 + tipifarnib	66.4	92.3	87.8	96.6	92.5	91.5
GW2580 + vismodegib	101	96.8	104	108	94.3	102
CP-690550 + PF-562271	107	164	140	80.7	70.6	78.0

The last 3 entries again:

{"pair": "CP-690550 + tipifarnib", "WM3619": 66.4, "COLO 792": 92.3, "COLO 800": 87.8, "C32": 96.6, "COLO 829": 92.5, "WM451Lu": 91.5}
{"pair": "GW2580 + vismodegib", "WM3619": 101, "COLO 792": 96.8, "COLO 800": 104, "C32": 108, "COLO 829": 94.3, "WM451Lu": 102}
{"pair": "CP-690550 + PF-562271", "WM3619": 107, "COLO 792": 164, "COLO 800": 140, "C32": 80.7, "COLO 829": 70.6, "WM451Lu": 78.0}

Data from the primary screen of doi:10.1371/journal.pone.0140310, rounded.